Publication PMC8988137, “Re-Expression of ERα and AR in Receptor Negative Endocrine Cancers via GSK3 Inhibition” (Frontiers in Oncology, 2022)
Results are given in words; binding and its absence hold for the method and conditions named. In cells and extracts the contact can be indirect. Some entries that bind do so weakly or less than the wild type.

Chains of the proteins cited; added tags and fusions are not shown. Lines headed by an entry give the natural chain unless they say otherwise; changes in a name come on top.
UniProt P26358: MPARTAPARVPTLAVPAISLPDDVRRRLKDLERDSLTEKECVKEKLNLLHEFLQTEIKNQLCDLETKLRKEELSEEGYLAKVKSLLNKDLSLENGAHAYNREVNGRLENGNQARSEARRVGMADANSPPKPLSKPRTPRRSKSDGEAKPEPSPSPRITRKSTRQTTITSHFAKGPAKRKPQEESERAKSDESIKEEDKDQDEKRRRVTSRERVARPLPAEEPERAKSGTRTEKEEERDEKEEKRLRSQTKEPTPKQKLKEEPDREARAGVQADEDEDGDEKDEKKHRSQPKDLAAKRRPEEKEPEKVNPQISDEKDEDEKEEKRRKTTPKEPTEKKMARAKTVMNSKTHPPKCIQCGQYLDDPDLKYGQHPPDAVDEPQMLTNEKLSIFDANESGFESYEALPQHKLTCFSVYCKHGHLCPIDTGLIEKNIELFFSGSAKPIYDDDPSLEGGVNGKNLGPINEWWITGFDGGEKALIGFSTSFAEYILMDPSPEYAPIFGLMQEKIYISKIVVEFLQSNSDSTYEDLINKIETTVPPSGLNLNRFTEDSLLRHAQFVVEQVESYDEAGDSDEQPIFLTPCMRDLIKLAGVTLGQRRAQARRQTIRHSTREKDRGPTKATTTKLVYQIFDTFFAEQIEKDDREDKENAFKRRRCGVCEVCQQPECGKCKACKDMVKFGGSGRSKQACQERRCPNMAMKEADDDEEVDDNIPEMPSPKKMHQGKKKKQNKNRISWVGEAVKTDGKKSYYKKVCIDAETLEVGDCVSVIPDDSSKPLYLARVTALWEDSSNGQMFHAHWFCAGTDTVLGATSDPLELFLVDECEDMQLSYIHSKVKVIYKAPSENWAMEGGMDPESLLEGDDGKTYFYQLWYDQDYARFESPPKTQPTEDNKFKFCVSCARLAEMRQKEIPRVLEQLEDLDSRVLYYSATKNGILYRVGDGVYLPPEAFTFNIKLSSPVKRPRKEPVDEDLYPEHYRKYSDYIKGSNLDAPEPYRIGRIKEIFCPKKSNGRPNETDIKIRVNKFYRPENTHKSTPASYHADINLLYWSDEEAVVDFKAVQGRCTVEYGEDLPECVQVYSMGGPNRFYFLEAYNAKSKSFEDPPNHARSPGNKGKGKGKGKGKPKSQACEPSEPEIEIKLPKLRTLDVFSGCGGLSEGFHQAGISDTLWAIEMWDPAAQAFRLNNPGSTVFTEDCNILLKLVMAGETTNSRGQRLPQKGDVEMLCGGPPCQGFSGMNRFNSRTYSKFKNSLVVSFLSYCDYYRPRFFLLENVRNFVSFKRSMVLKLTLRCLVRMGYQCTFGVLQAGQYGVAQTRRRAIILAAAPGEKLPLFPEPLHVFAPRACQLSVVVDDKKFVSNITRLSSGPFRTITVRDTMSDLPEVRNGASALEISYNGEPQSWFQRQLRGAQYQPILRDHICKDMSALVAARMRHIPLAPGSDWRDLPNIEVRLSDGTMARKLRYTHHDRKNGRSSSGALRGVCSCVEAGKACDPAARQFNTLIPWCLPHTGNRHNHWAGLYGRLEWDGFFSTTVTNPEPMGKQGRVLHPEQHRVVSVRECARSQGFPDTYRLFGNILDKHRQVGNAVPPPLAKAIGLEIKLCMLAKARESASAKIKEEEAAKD
UniProt P49841: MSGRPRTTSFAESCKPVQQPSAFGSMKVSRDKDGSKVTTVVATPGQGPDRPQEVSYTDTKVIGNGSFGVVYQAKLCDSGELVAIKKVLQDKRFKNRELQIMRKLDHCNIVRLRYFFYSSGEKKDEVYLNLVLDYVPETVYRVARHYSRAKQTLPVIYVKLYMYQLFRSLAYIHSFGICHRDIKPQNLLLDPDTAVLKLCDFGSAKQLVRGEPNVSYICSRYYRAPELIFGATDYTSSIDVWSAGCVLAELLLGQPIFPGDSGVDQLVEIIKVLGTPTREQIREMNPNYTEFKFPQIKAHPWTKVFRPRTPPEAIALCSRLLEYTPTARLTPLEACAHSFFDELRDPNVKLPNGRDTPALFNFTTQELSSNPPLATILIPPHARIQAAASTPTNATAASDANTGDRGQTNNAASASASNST

Assays:
[1] = target: Myc-DNMT1 (S714A) (human) (UniProt P26358); test: co-IP; C4-2 and MDA-MB-231 cells transfected with Myc-DNMT1 (WT) or Myc-DNMT1 (S714A); Myc-tagged proteins immunoprecipitated with c-Myc antibody, blot of endogenous GSK3β
Myc-DNMT1 (WT) (human) = Myc-DNMT1 (WT) (human) (UniProt P26358); test: as above

binding [1]: binds
binding (Myc-DNMT1 (WT) (human)): binds
Substance: GSK3β (from UniProt P49841 1-420) (enzyme)
